Measured values published in patent US6432702.
Results are given in words; binding and its absence hold for the method and conditions named. Some binding calls cover weakened binding; strength is not graded here.

By UniProt entry, the sequences of proteins in these tests, tags left out. Residues count along the entry.
UniProt P16092, residues 22-822: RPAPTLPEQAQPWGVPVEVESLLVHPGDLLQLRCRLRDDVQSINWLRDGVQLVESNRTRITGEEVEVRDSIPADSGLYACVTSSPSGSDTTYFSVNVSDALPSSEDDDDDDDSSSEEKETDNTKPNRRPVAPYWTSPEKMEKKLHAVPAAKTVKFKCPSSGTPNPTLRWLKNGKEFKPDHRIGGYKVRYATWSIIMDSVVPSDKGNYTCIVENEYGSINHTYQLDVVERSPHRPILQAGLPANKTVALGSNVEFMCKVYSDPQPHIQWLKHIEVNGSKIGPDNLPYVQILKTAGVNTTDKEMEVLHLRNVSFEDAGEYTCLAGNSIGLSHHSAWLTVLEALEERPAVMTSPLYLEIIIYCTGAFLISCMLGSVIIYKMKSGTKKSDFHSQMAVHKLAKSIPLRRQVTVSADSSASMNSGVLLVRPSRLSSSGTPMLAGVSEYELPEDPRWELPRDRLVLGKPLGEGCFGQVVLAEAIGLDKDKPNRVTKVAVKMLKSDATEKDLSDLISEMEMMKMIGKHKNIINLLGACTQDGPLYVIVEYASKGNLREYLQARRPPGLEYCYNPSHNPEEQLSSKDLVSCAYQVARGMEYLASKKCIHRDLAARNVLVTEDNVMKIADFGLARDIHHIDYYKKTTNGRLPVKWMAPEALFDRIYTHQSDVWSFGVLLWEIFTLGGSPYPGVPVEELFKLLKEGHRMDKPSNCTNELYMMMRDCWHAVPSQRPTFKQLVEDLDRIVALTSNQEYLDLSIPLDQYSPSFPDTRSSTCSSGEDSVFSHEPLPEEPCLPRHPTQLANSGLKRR
UniProt P21803, residues 22-821: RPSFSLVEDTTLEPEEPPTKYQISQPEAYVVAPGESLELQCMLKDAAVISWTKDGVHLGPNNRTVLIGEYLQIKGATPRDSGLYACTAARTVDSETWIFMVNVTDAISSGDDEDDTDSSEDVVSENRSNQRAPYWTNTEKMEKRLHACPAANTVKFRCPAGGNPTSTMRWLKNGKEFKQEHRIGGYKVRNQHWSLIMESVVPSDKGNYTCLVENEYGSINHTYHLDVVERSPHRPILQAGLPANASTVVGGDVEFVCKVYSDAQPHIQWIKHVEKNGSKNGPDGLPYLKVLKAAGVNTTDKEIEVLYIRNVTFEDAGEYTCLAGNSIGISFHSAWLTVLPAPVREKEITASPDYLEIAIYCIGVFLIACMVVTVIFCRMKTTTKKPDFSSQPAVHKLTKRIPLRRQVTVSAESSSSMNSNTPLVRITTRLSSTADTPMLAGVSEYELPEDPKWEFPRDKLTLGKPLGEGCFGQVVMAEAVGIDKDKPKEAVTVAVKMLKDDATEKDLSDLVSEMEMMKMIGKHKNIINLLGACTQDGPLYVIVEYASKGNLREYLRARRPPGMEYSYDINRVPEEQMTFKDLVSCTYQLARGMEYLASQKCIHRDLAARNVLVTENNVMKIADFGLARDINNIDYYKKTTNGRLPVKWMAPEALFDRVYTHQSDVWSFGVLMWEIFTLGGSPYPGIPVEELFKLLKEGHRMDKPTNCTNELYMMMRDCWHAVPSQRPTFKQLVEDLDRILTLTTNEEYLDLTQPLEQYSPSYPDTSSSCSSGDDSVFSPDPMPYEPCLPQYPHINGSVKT

Experiments:
[1] = target: FGF receptor-1 (flg) (UniProt P16092); test: competition with 125I-bFGF on CHO 4-1 cells expressing FGF receptor-1
[2] = target: FGF receptor-1 (flg) (UniProt P16092); test: cross-competition with iodinated K-FGF and K-FGF-140 on CHO 4-1 cells
[3] = target: FGF receptor-2 (bek) (UniProt P21803); test: cross-competition with iodinated K-FGF and K-FGF-140 on CHO 3-7.5 cells
[4] = target: FGF receptor-2 (bek) (UniProt P21803); test: competition with 125I-bFGF on CHO 3-7.5 cells expressing FGF receptor-2

Measured: binding

B1: K-FGF-140 (truncated K-FGF) (ligand)
chain: AAVQSGAGDYLLGIKRLRRLYCNVGIGFHLQALPDGRIGGAHADTRDSLLELSPVERGVVSIFGVASRFFVAMSSKGKLYGSPFFTDECTFKEILLPNNYNAYESYKYPGMFIALSKNGKTKKGNRVSPTMKVTHFLPRL
binds: [1] | [2] | [3]

B2: K-FGF (full-length mature human growth factor) (ligand)
chain: APTAPNGTLEAELERRWESLVALSLARLPVAAQPKEAAVQSGAGDYLLGIKRLRRLYCNVGIGFHLQALPDGRIGGAHADTRDSLLELSPVERGVVSIFGVASRFFVAMSSKGKLYGSPFFTDECTFKEILLPNNYNAYESYKYPGMFIALSKNGKTKKGNRVSPTMKVTHFLPRL
binds: [2] | [4] | [3]
